## Primary screen of a compound library

By UniProt entry, the sequences of proteins in these tests, tags left out.
UniProt E9BF75, entry or part of it: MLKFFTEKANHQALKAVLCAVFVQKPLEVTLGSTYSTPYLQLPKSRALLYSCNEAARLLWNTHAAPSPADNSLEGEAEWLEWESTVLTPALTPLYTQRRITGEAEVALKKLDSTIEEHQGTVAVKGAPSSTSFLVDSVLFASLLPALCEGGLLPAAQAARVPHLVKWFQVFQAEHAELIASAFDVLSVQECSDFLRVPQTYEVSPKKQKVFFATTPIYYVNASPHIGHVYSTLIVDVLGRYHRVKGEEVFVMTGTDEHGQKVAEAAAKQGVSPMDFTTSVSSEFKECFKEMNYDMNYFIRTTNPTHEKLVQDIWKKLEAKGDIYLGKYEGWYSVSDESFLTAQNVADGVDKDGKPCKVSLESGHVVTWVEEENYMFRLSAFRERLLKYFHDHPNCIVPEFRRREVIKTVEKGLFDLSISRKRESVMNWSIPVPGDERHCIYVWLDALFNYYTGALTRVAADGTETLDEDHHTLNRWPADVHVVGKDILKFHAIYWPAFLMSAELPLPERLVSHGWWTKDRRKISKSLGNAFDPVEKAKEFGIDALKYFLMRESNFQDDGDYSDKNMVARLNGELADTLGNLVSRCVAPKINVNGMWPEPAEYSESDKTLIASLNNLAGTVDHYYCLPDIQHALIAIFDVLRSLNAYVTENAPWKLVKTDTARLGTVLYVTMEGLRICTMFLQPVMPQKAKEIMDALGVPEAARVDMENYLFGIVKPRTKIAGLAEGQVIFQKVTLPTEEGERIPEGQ

Source: ChEMBL document CHEMBL3988442, “University of Dundee, Small-Polar-MMV Screening Library” (2021).

All values are in %. The record does not define 0% and 100%; most values in the screen are far below 50% and negative numbers occur (in some assays of this library far below -100). The compounds are a random part of those screened. A dash means the value is not listed here; it may have been measured.

Mtb heat-shock: 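Assay on Mycobacterium tuberculosis, filed only as a heat shock assay from Cornell; the read-out is not stated. The concentration is filed as 10 mM, unlikely as a test dose, so the dose is not known. Direction is inferred from retests: higher values go with stronger inhibition. About 69,000 compounds were tested under these conditions; 1.4% (about 930) showed 50% or more at least once.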
Mtb growth Cornell: 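Whole-cell assay for inhibitors of Mycobacterium tuberculosis growth, labelled Cornell in the record; the read-out is not stated. The concentration is filed as 10 mM, unlikely as a test dose, so the dose is not known. Higher means stronger inhibition (inferred from two other growth screens of the library). About 53,000 compounds were tested under these conditions; 1.7% (about 900) showed 50% or more at least once.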
LdMetRS: 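Primary screen of methionyl-tRNA synthetase; the read-out is not stated. Target: Methionyl-tRNA synthetase (putative), Leishmania donovani (UniProt E9BF75). The test concentration is not given. The values are filed as inhibition. Size under these conditions: about 68,000 compounds, about 24 of them at 50% or above in at least one test.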

| Compound | Mtb heat-shock | Mtb growth Cornell | LdMetRS |
|---|---|---|---|
| `COC(=O)CN(C)Cc1cc(Br)cs1` | 0.5976 | -17.43 | 6.479 |
| `Cc1cnn(CC2CCCCN2C(=O)c2nccnc2N)c1` (stereo not shown) | 4.511 | - | 14.36 |
| `CNc1ncc2c(n1)CN(C1CCCC1)C2=O` | 4.122 | - | 19.35 |
| `[H][C@]12CC[C@@]3(N=C(CC)N(CC)C3=O)[C@@]1([H])CN(S(=O)(=O)CC(C)C)C2` | 1.161 | 9.873 | - |
| `CN1CCOC(C(=O)N2CCC3(CCCCC3)C2)C1` (stereo not shown) | -17.44 | - | 9.041 |
| `CCn1cc(CN2CCCN(C(=O)c3sccc3C#N)CC2)cn1` | 8.741 | -36.68 | 8.92 |
| `CN(C)Cc1cnc2n1CCN(C(=O)Cc1ccc(F)cc1)CC2` | - | - | 14.86 |
| `O=C(NCC1CC1)C1CCC2(CCN(C(=O)c3cnccn3)CC2)O1` (stereo not shown) | -10.88 | -43.43 | 1.603 |
| `NC(Cc1nc(-c2ccccc2)no1)c1ccccc1` (stereo not shown) | - | - | -7.094 |
| `Cc1[nH]ncc1C(=O)N1CCN(CC(O)C(C)(C)C)CC1` (stereo not shown) | 23.72 | 6.006 | 11.66 |
| `CCOc1ccccc1OC1CCN(Cc2ccn(C)c(=O)c2)CC1` | -23.06 | -22.43 | 10.54 |
| `CCN1CCC2(CC1)CC(NCc1cccs1)c1ccccc1O2` (stereo not shown) | - | - | 3.746 |
| `c1cnc(N2CCCC3(CCN(CC4CCC4)C3)C2)nc1` (stereo not shown) | - | - | 21.9 |
| `Cc1cc(CN2C[C@@H]3COC[C@@H](C(=O)N4CCCCO4)[C@@H]3C2)no1` | - | - | -0.4975 |
| `C1=C(c2c[nH]c3ncccc23)CCN(Cc2nnc(C3CC3)o2)C1` | -15.01 | - | 23.2 |
| `CC(C)CNC(=O)N1C[C@H]2CCN[C@H]2C1` | - | - | 7.222 |
| `CNC(=O)C(C)CN(C)C(=O)Nc1ccc(Cl)cc1-n1cccc1` (stereo not shown) | 0.4411 | - | 14.76 |
| `O=C(NCC1CC1)C1CCC2(CCN(C(=O)c3ccncc3)CC2)O1.O=C(O)C(F)(F)F` (stereo not shown) | -26.14 | -15.82 | - |
| `Cc1cccc(N2CC3(CCN(Cc4nccn4C)C3)CC2=O)c1.O=C(O)C(F)(F)F` (stereo not shown) | -12.45 | 21.79 | - |
| `CS(=O)(=O)c1ccc(-c2c[nH]c([C@@H]3COCCN3)n2)cc1` | -37.42 | -7.996 | 5.263 |
| `Cc1nc(Cn2c3c(ccc2=O)CC(NC(C)C)CC3)cs1` (stereo not shown) | - | - | 12.47 |
| `CCN(C)c1ncnc2c1CCN(C(=O)c1ccoc1C)CC2` | - | - | 3.226 |
| `CN1CCN(C(=O)c2n[nH]c3c2CN(Cc2nccs2)CC3)CC1` | -12.74 | -11.79 | 3.78 |
| `Cc1nc(C)c(C(=O)N2CCCC2(C)C(=O)NC2CCCC2)s1` (stereo not shown) | 14.08 | -2.69 | 9.449 |
| `CN(Cc1ccsc1)C(=O)c1cccc(NS(C)(=O)=O)c1` | -31.81 | 10.57 | 8.502 |
| `CNC(=O)CCC(=O)N1CCOC(c2ccc3cc(OC)ccc3c2)C1` (stereo not shown) | 5.052 | 21.34 | 7.311 |
| `CNC(=O)[C@H]1C[C@@H]2CN(Cc3cccnc3OC)C[C@@H]2N1C(C)=O` | - | - | 8.654 |
| `O=C(NCCc1coc(-c2ccc(F)cc2)n1)NC1CC1` | -7.205 | 9.97 | 20.52 |
| `O=C(O)C(F)(F)F.[H][C@@]12CN(Cc3ccc(F)cc3)C[C@]1([H])C(=O)N(c1ccsc1)C2` | 26.55 | 26.82 | - |
| `CC(c1ccc2c(c1)OCCO2)N(C)C(=O)c1ccnnc1` (stereo not shown) | -29.47 | -8.986 | 0 |
| `COc1cccc(F)c1C(=O)N1C[C@@H](CN(C)CCO)[C@@H](CO)C1` | -12.09 | 23.73 | 18.9 |
| `N#Cc1ccc(C(=O)N2CC[C@H]3[C@@H]2CCC(=O)N3c2ccccc2)cc1` | - | - | 12.89 |
| `CC(C)NC(=O)NC[C@H]1OC[C@@H](NCc2ccncc2)[C@@H]1O` | -10.61 | 14.43 | 6.84 |
| `Cn1c(=O)[nH]c(=O)n2c(CC(=O)NCc3ccccc3)cnc12` | 0.07229 | - | 5.714 |
| `COCCNC(=O)Cn1nc(C(C)C)c2cnn(C(C)(C)C)c2c1=O` | -17.06 | 12.81 | 4.433 |
| `CC(C)CCN(C)Cc1ccccc1-c1nc(C(C)C)cc(=O)[nH]1` | -21.68 | - | 5 |
| `Cc1cnc(CNC(=O)[C@@]23CCO[C@@H]2CCNC3)cn1` | - | - | 14.99 |
| `CCc1cnc(N2C[C@H](OCc3csc(C)n3)[C@H]3COC[C@H]32)nc1` | - | - | 8.333 |
| `O=C1CC2(CCN(C(=O)c3ccc4c(c3)CCCO4)C2)C(=O)N1` (stereo not shown) | 0.6344 | 2.156 | 4.359 |
| `CCc1noc(CNc2ccc(C(=O)N3CCCC3)cc2C)n1` | -19.87 | -69.23 | 13.39 |
| `CCCN1CCCN(C(=O)c2oc(C)nc2C)CC1` | -1.914 | -30.62 | 4.478 |
| `COCCN1CCC(c2nc3ccc(-c4ccccc4)cn3n2)CC1` | - | - | 18.12 |
| `O=C(Nc1ccnc(OC2CCOC2)c1)c1ccccc1Cl` (stereo not shown) | -6.808 | 61.48 | 6.522 |
| `[H][C@@]12CCCO[C@]1([H])[C@H](NC(=O)N(C)C)CN2S(C)(=O)=O` | -35.33 | -26.65 | - |
| `CC1CN(CC(=O)NCc2ccccn2)CCN1Cc1nccn1C` (stereo not shown) | 39.99 | - | 13.65 |
| `COCCC(=O)N1Cc2cnc(Cc3ccc(OC)cc3)nc2C1` | 4.796 | - | 8 |
| `CNc1ccccc1C(=O)N(C)CCc1ccccc1` | -6.628 | 3.788 | 9.524 |
| `O=C(NCCCNC(=O)c1cccc(O)c1)Nc1ccc(Cl)cc1` | 13.67 | 33.63 | 6.761 |
| `Cc1c[nH]c(C2CN(Cc3ccccc3C(=O)O)CCO2)n1` (stereo not shown) | -16.64 | 7.243 | 18.1 |
| `COc1ccc(-c2cc(C3CC3)c(C#N)c(N)n2)cc1F` | 6.84 | - | 7.003 |
| `O=C(O)C(F)(F)F.[H][C@@]12OCCC[C@]1([H])N(Cc1ccc(OC)cc1)C[C@@H]2N1CCCC1=O` | -33.35 | 9.129 | - |
| `COc1cc(C(=O)Nc2nc(C)no2)ccc1OC1CCCC1` | -1.479 | - | 21.13 |
| `O=C(Nc1cccc(CNCc2cccs2)c1)C1CCCC1` | 25.92 | 6.262 | 14.17 |

For reference, 6 entries once more:

{"compound": "c1cnc(N2CCCC3(CCN(CC4CCC4)C3)C2)nc1", "stereo": "stereo not shown", "LdMetRS": 21.9}
{"compound": "COc1cc(C(=O)Nc2nc(C)no2)ccc1OC1CCCC1", "Mtb heat-shock": -1.479, "LdMetRS": 21.13}
{"compound": "CCCN1CCCN(C(=O)c2oc(C)nc2C)CC1", "Mtb heat-shock": -1.914, "Mtb growth Cornell": -30.62, "LdMetRS": 4.478}
{"compound": "Cc1cnn(CC2CCCCN2C(=O)c2nccnc2N)c1", "stereo": "stereo not shown", "Mtb heat-shock": 4.511, "LdMetRS": 14.36}
{"compound": "CNC(=O)C(C)CN(C)C(=O)Nc1ccc(Cl)cc1-n1cccc1", "stereo": "stereo not shown", "Mtb heat-shock": 0.4411, "LdMetRS": 14.76}
{"compound": "Cc1nc(C)c(C(=O)N2CCCC2(C)C(=O)NC2CCCC2)s1", "stereo": "stereo not shown", "Mtb heat-shock": 14.08, "Mtb growth Cornell": -2.69, "LdMetRS": 9.449}